Assay results reported in publication PMC7578860.
Results are given in words; binding and its absence hold for the method and conditions named. Binding seen in cells or lysates may run through a third protein. A result given as binding can be weak or reduced; the word gives no strength. Tags and fused reporters may be left off the sequences shown.

Target: P/G rich domain of KSRP (Flag‐tagged KSRP deletion mutant) (human)
Assay: co-IP; HEK293T cells cotransfected with a full-length partner and tagged deletion mutants or segments of the other (Figure 4E, 4F); antibodies to Myc and Flag; western blot

B1: Myc‐tagged full‐length FBXW2 (in HEK293T cells) (protein, UniProt Q9UKT8 1-454)
chain: MERKDFETWLDNISVTFLSLTDLQKNETLDHLISLSGAVQLRHLSNNLETLLKRDFLKLLPLELSFYLLKWLDPQTLLTCCLVSKQWNKVISACTEVWQTACKNLGWQIDDSVQDALHWKKVYLKAILRMKQLEDHEAFETSSLIGHSARVYALYYKDGLLCTGSDDLSAKLWDVSTGQCVYGIQTHTCAAVKFDEQKLVTGSFDNTVACWEWSSGARTQHFRGHTGAVFSVDYNDELDILVSGSADFTVKVWALSAGTCLNTLTGHTEWVTKVVLQKCKVKSLLHSPGDYILLSADKYEIKIWPIGREINCKCLKTLSVSEDRSICLQPRLHFDGKYIVCSSALGLYQWDFASYDILRVIKTPEIANLALLGFGDIFALLFDNRYLYIMDLRTESLISRWPLPEYRKSKRGSSFLAGEASWLNGLDGHNDTGLVFATSMPDHSIHLVLWKEHG
binding: binds
